The text below walks through data of patent US20220204633A1 (UNIVERSIT T Z RICH, published 2022).

Protein sequences, listed by entry. Tags and fused reporters are not part of them. Residues count along the entry.
UniProt P19909, residues 303-497: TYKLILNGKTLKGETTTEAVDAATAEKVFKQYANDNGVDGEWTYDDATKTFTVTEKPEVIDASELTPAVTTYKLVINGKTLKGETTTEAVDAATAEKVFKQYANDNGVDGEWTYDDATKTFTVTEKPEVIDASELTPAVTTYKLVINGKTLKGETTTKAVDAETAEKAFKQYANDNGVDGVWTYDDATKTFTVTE

The assay addresses Protein G (protein G sepharose chromatography bead, Biovision) (UniProt P19909). As to the kind of experiment: Protein G affinity chromatography.

These are yes or no findings as the source states them, for the method shown. Some binding calls cover weakened binding; strength is not graded here.

B1: human IL-12Fc NHQ (Fc fusion)
chain: IWELKKDVYVVELDWYPDAPGEMVVLTCDTPEEDGITWTLDQSSEVLGSGKTLTIQVKEFGDAGQYTCHKGGEVLSHSLLLLHKKEDGIWSTDILKDQKEPKNKTFLRCEAKNYSGRFTCWWLTTISTDLTFSVKSSRGSSDPQGVTCGAATLSAERVRGDNKEYEYSVECQEDSACPAAEESLPIEVMVDAVHKLKYENYTSSFFIRDIIKPDPPKNLQLKPLKNSRQVEVSWEYPDTWSTPHSYFSLTFCVQVQGKSKREKKDRVFTDKTSATVICRKNASISVRAQDRYYSSSWSEWASVPCSGGGGSGGGGSGGGGSRNLPVATPDPGMFPCLHHSQNLLRAVSNMLQKARQTLEFYPCTSEEIDHEDITKDKTSTVEACLPLELTKNESCLNSRETSFITNGSCLASRKTSFMMALCLSSIYEDLKMYQVEFKTMNAKLLMDPKRQIFLDQNMLAVIDELMQALNFNSETVPQKSSLEEPDFYKTKIKLCILLHAFRIRAVTIDRVMSYLNASKVDKRVESKYGPPCPPCPAPEFLGGPSVFLFPPKPKDTLMNSRTPEVTCVVVDVSQEDPEVQFNWYVDGVEVHNAKTKPREEQFNSTYRVVSVLTVLHQDWLNGKEYKCKVSNKGLPSSIEKTISKAKGQPREPQVYTLPPSPEEMTKNQVSLTCLVKGFYPSDIAVEWESNGQPENNYKTTPPVLDSDGSFFLYSRLTVDKSRWQEGNVFSCSVMHEALHNQYTQKSLSLSLGK
notes: also called NHQ variant
As for B1, the binding result is “binds”.
